Assay results taken from US20240293579A1, “Composition Comprising Trim31 and Rhbdf2 for Treatment of NAFLD/NASH” (CHONGQING MEIPULAN TECHNOLOGY CO., LTD, priority 2021, published 2024).
These are yes or no findings as the source states them, for the method shown. Binding seen in cells or lysates may run through a third protein. Sequences can lack the tags named with a protein.

Protein sequences, listed by entry. Tags and fused reporters are not part of them. Lines headed by an entry give the natural chain unless they say otherwise; changes in a name come on top.
UniProt Q8R0K2: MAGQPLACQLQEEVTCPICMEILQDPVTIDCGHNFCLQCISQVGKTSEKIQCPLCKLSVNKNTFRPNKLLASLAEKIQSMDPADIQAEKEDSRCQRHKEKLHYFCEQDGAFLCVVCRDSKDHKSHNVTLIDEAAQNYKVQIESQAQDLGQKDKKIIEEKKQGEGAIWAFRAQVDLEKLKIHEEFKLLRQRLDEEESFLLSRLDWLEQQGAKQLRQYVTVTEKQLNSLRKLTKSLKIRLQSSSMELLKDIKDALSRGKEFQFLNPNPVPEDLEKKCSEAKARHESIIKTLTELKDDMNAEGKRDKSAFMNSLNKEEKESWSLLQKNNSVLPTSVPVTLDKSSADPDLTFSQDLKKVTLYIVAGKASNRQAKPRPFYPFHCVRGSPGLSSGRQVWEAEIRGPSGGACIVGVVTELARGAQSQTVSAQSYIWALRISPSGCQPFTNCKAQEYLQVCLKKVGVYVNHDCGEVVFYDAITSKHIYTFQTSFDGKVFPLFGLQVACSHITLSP

Target: T1, mouse Rhbdf2, full-length, HA-tagged (mouse) (UniProt Q80WQ6)
T1 sequence (looked up): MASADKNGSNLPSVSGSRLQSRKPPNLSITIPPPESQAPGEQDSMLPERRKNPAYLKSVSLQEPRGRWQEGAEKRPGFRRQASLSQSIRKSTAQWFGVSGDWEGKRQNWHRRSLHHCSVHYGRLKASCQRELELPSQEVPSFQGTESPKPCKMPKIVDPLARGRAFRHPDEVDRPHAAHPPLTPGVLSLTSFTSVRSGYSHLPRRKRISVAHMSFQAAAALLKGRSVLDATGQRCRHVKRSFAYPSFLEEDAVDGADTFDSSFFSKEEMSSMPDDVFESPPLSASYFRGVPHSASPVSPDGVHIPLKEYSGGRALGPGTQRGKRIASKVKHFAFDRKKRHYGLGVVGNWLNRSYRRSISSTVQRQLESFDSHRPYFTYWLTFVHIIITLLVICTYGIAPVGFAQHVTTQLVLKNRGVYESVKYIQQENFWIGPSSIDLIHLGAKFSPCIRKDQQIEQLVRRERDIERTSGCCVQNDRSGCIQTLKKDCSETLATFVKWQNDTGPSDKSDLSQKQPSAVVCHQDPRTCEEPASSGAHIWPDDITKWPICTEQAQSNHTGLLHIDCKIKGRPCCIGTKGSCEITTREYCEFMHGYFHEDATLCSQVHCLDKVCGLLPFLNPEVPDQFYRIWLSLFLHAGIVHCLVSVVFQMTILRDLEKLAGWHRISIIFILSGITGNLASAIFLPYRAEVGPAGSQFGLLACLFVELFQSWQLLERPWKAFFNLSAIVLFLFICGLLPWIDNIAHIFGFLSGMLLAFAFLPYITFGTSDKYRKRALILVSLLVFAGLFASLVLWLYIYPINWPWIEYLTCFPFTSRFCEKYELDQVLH
Experiment: co-immunoprecipitation in transfected mouse hepatocytes

binding: no binding
Substance: mouse Trim31 CC domain deletion mutant, Flag-tagged (Trim31-Flag CC^Δ) (from UniProt Q8R0K2) (enzyme)
